Measurements published in publication doi:10.1101/2023.11.26.568767.
Results are given in words; binding and its absence hold for the method and conditions named. Some binding calls cover weakened binding; strength is not graded here.

T1: GTP BINDING PROTEIN BETA 1 (AGB1), splice isoform AGB1.1 (Arabidopsis thaliana) (UniProt P49177)
T1 sequence: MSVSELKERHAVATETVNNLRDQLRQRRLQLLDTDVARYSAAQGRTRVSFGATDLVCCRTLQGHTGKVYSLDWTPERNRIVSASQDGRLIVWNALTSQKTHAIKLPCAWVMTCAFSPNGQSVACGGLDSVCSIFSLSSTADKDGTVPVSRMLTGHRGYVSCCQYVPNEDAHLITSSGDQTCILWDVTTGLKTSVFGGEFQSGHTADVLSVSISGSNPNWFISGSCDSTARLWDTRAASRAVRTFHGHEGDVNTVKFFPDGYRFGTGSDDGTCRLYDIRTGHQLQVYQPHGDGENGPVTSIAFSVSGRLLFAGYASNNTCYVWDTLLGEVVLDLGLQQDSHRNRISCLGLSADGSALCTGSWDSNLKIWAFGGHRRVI


Biological target: T1, GTP BINDING PROTEIN BETA 1 (AGB1), splice isoform AGB1.1 (Arabidopsis thaliana)
Assay: two-hybrid

binding	Binder
binds	G protein γ subunit AGG1 (protein, UniProt Q9FDX9 1-98) MREETVVYEQEESVSHGGGKHRILAELARVEQEVAFLEKELKEVENTDIVSTVCEELLSVIEKGPDPLLPLTNGPLNLGWDRWFEGPNGGEGCRCLIL
binds	G protein γ subunit AGG3 (protein, UniProt Q6AWT8 1-251) MSAPSGGGEGGGKESAAGGVSSSSLAPSSLPPPRPKSPPEYPDLYGKRREAARVQMLEREIGFLEGEIKFIEGVQPASRCIKEVSDFVVANSDPLIPAQRKSRRSFRFWKWLCGPCLSLVSFCCCCQSKCSCHLRKPKCCNCTSCSCIGSKCCDGSCCSNICCCPRLSCPSCSCFRGCWCSCPDMSCCIPSCFRSCSCTRPSCLNKKKSSCCSCNCKIRWSSCFSCPKVRLCSCCFCNCKNLCSNPCCLAF
binds weakly	G protein γ subunit AGG2 (protein, UniProt Q93V47 1-100) MEAGSSNSSGQLSGRVVDTRGKHRIQAELKRLEQEARFLEEELEQLEKMDNASASCKEFLDSVDSKPDPLLPETTGPVNATWDQWFEGPKEAKRCGCSIL
